# Test results taken from the supplement of paper PMC8728848.
# This is one part of the list.
# B1: PX14343G-pdi-535-24-535 (Parabacteroides distasonis) (protein)
# chain: LDTVPKDQLAPSTTWQTEADAKGFIVGCYKDLLDGNTLLYLDCGSDIGYNNFPWEGFRPWGDGSLSSSNPGQILYDYKSIRKANTFLENVDKVTFSSDAVKANYVAQAKAIRAYKYFLMNWWYGGVPIISSYSSADEAKVERNTEQEVRDYIAKDLDEALAGIAEAPEARGYIAKGAVLAIKMREALYYGDWQKAKDAAKAIIDLKQYELDPDYTNLFKVSGVDSKEIILADQNIETLDGLGTIGQMYNNVDQGWSSIVPTQNLVDMYEMSDGLTKEESKTYDAKHPFANRDPRMAMTILYPGRDWRGDVLNTLDEKLQDGTVNKNFPTYTDNASKSALTWAKYLDPMDQYGDVWSSGACPIVFRYAEVLLTYAEAANELSGPSDEIYGYLNQIRQRVGMGEVDKAKYGTKDKLRELIRRERTVELAGEGLRRADIVRWQEDGKMLAEKVMNGDLLRVTGTINYGESEPTKRAEITGTAVIETRQFSSRNRYLPIPQTSMDKNPNLKQNPGY
# Experiments:
# Assay in all cases: glycan array binding signal (z-score within array); higher = stronger binding
# Conditions in all cases: glycan notation: IUPAC condensed, linker removed
# [1] = target: Gal(a1-3)[Gal(a1-4)]Gal(b1-4)GlcNAc
# How it was run: (§1)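 The binding signal is a Z-score computed within each array. Data were drawn from 3228 arrays in the Consortium for Functional Glycomics database, restricted to those with a known protein sequence. Scores were averaged over arrays of the same protein sequence at different concentrations or buffers, and over linkers, and negative values can be taken as non-binding.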
# [2] = target: Gal(a1-4)Gal(b1-3)GlcNAc(b1-2)Man(a1-3)[Gal(a1-4)Gal(b1-3)GlcNAc(b1-2)Man(a1-6)]Man(b1-4)GlcNAc(b1-4)GlcNAc
# How it was run: as §1
# [3] = target: Gal(a1-4)Gal(b1-4)Glc
# How it was run: as §1
# [4] = target: Gal(a1-4)Gal(b1-4)GlcNAc
# How it was run: as §1
# [5] = target: Gal(a1-4)Gal(b1-4)GlcNAc(b1-2)Man(a1-3)[Gal(a1-4)Gal(b1-4)GlcNAc(b1-2)Man(a1-6)]Man(b1-4)GlcNAc(b1-4)GlcNAc
# How it was run: as §1
# [6] = target: Gal(a1-4)Gal(b1-4)GlcNAc(b1-3)Gal(b1-4)Glc
# How it was run: as §1
# [7] = target: Gal(a1-4)GlcNAc
# How it was run: as §1
# [8] = target: Gal(a1-6)Glc
# How it was run: as §1
# [9] = target: Gal(b1-2)Gal
# How it was run: as §1
# [10] = target: Gal(b1-3)Gal
# How it was run: as §1
# [11] = target: Gal(b1-3)Gal(b1-4)GlcNAc
# How it was run: as §1
# [12] = target: Gal(b1-3)GalNAc
# How it was run: as §1
# [13] = target: Gal(b1-3)GalNAc(a1-3)[Fuc(a1-2)]Gal(b1-4)Glc
# How it was run: as §1
# [14] = target: Gal(b1-3)GalNAc(a1-3)[Fuc(a1-2)]Gal(b1-4)GlcNAc
# How it was run: as §1
# [15] = target: Gal(b1-3)GalNAc(b1-3)Gal
# How it was run: as §1
# [16] = target: Gal(b1-3)GalNAc(b1-3)Gal(a1-4)Gal(b1-4)Glc
# How it was run: as §1
# [17] = target: Gal(b1-3)GalNAc(b1-4)Gal(b1-4)Glc
# How it was run: as §1
# [18] = target: Gal(b1-3)GalNAc(b1-4)[Neu5Ac(a2-3)]Gal(b1-4)Glc
# How it was run: as §1
# [19] = target: Gal(b1-3)GlcNAc
# How it was run: as §1
# [20] = target: Gal(b1-3)GlcNAc(a1-3)Gal(b1-4)GlcNAc
# How it was run: as §1
# [21] = target: Gal(b1-3)GlcNAc(a1-6)Gal(b1-4)GlcNAc
# How it was run: as §1
# [22] = target: Gal(b1-3)GlcNAc(b1-2)Man
# How it was run: as §1
# [23] = target: Gal(b1-3)GlcNAc(b1-2)Man(a1-3)[Gal(b1-3)GlcNAc(b1-2)Man(a1-6)]Man(b1-4)GlcNAc(b1-4)GlcNAc
# How it was run: as §1
# [24] = target: Gal(b1-3)GlcNAc(b1-2)Man(a1-3)[Gal(b1-3)GlcNAc(b1-2)Man(a1-6)]Man(b1-4)GlcNAc(b1-4)[Fuc(a1-6)]GlcNAc
# How it was run: as §1
# [25] = target: Gal(b1-3)GlcNAc(b1-2)Man(a1-3)[GlcNAc(b1-4)][Gal(b1-3)GlcNAc(b1-2)Man(a1-6)]Man(b1-4)GlcNAc(b1-4)GlcNAc
# How it was run: as §1
# [26] = target: Gal(b1-3)GlcNAc(b1-2)[Gal(b1-3)GlcNAc(b1-6)]Man(a1-6)[Gal(b1-3)GlcNAc(b1-2)Man(a1-3)]Man(b1-4)GlcNAc(b1-4)GlcNAc
# How it was run: as §1
# [27] = target: Gal(b1-3)GlcNAc(b1-3)Gal(b1-3)GlcNAc
# How it was run: as §1
# [28] = target: Gal(b1-3)GlcNAc(b1-3)Gal(b1-4)Glc
# How it was run: as §1
# [29] = target: Gal(b1-3)GlcNAc(b1-3)Gal(b1-4)GlcNAc
# How it was run: as §1
# [30] = target: Gal(b1-3)GlcNAc(b1-3)Gal(b1-4)GlcNAc(b1-2)Man(a1-3)[Gal(b1-3)GlcNAc(b1-3)Gal(b1-4)GlcNAc(b1-2)Man(a1-6)]Man(b1-4)GlcNAc(b1-4)GlcNAc
# How it was run: as §1
# [31] = target: Gal(b1-3)GlcNAc(b1-3)Gal(b1-4)GlcNAc(b1-2)[Gal(b1-3)GlcNAc(b1-3)Gal(b1-4)GlcNAc(b1-6)]Man(a1-6)[Gal(b1-3)GlcNAc(b1-3)Gal(b1-4)GlcNAc(b1-2)Man(a1-3)]Man(b1-4)GlcNAc(b1-4)[Fuc(a1-6)]GlcNAc
# How it was run: as §1
# [32] = target: Gal(b1-3)GlcNAc(b1-3)Gal(b1-4)GlcNAc(b1-3)Gal(b1-4)GlcNAc(b1-2)[Gal(b1-3)GlcNAc(b1-3)Gal(b1-4)GlcNAc(b1-3)Gal(b1-4)GlcNAc(b1-6)]Man(a1-6)[Gal(b1-3)GlcNAc(b1-3)Gal(b1-4)GlcNAc(b1-3)Gal(b1-4)GlcNAc(b1-2)Man(a1-3)]Man(b1-4)GlcNAc(b1-4)[Fuc(a1-6)]GlcNAc
# How it was run: as §1
# [33] = target: Gal(b1-3)GlcNAc(b1-3)Gal(b1-4)GlcNAc(b1-6)[Gal(b1-3)GlcNAc(b1-3)]Gal(b1-4)Glc
# How it was run: as §1
# [34] = target: Gal(b1-3)GlcNAc(b1-3)Gal(b1-4)[Fuc(a1-3)]GlcNAc
# How it was run: as §1
# [35] = target: Gal(b1-3)GlcNAc(b1-3)Gal(b1-4)[Fuc(a1-3)]GlcNAc(b1-6)[Gal(b1-3)GlcNAc(b1-3)]Gal(b1-4)Glc
# How it was run: as §1
# [36] = target: Gal(b1-3)GlcNAc(b1-3)GalNAc
# How it was run: as §1
# [37] = target: Gal(b1-3)GlcNAc(b1-6)Gal(b1-4)GlcNAc
# How it was run: as §1
# [38] = target: Gal(b1-3)GlcNAc(b1-6)GalNAc
# How it was run: as §1
binder,measurement,setting,value
B1,glycan array binding signal (z-score),[1],2.67
same,glycan array binding signal (z-score),[2],-0.566
same,glycan array binding signal (z-score),[3],1.42
same,glycan array binding signal (z-score),[4],0.613
same,glycan array binding signal (z-score),[5],0.47
same,glycan array binding signal (z-score),[6],-0.746
same,glycan array binding signal (z-score),[7],-0.638
same,glycan array binding signal (z-score),[8],-0.876
same,glycan array binding signal (z-score),[9],0.59
same,glycan array binding signal (z-score),[10],0.479
same,glycan array binding signal (z-score),[11],0.673
same,glycan array binding signal (z-score),[12],-0.242
same,glycan array binding signal (z-score),[13],-1.38
same,glycan array binding signal (z-score),[14],0.052
same,glycan array binding signal (z-score),[15],-0.186
same,glycan array binding signal (z-score),[16],-0.25
same,glycan array binding signal (z-score),[17],-0.297
same,glycan array binding signal (z-score),[18],-0.527
same,glycan array binding signal (z-score),[19],-0.673
same,glycan array binding signal (z-score),[20],-0.62
same,glycan array binding signal (z-score),[21],-0.235
same,glycan array binding signal (z-score),[22],0.398
same,glycan array binding signal (z-score),[23],0.51
same,glycan array binding signal (z-score),[24],0.087
same,glycan array binding signal (z-score),[25],0.434
same,glycan array binding signal (z-score),[26],0.783
same,glycan array binding signal (z-score),[27],0.138
same,glycan array binding signal (z-score),[28],-0.237
same,glycan array binding signal (z-score),[29],-0.023
same,glycan array binding signal (z-score),[30],-0.318
same,glycan array binding signal (z-score),[31],0.821
same,glycan array binding signal (z-score),[32],0.718
same,glycan array binding signal (z-score),[33],0.24
same,glycan array binding signal (z-score),[34],-0.53
same,glycan array binding signal (z-score),[35],0.066
same,glycan array binding signal (z-score),[36],-0.933
same,glycan array binding signal (z-score),[37],0.186
same,glycan array binding signal (z-score),[38],-0.848

# Shown with bars between the fields: entries from further up
binder | measurement | setting | value
B1 | glycan array binding signal (z-score) | [22] | 0.398
same | glycan array binding signal (z-score) | [23] | 0.51
same | glycan array binding signal (z-score) | [24] | 0.087
same | glycan array binding signal (z-score) | [25] | 0.434
same | glycan array binding signal (z-score) | [26] | 0.783
same | glycan array binding signal (z-score) | [27] | 0.138
same | glycan array binding signal (z-score) | [28] | -0.237
same | glycan array binding signal (z-score) | [29] | -0.023
